{"source": "patent US9675675B2", "about": "“Microneedle device having a peptide therapeutic agent and an amino acid, methods of making and using the same” (3M INNOVATIVE PROPERTIES COMPANY, priority 2011, dated 2017)", "assay": "Storage stability of salmon calcitonin in dried coating on microneedle arrays, HPLC content", "type": "physicochemical", "details": "5 mg/mL salmon calcitonin in PBS; for Percent of Initial Salmon Calcitonin Content in the Coating, Initial: freshly coated reference standard, about 4° C.; for Percent of Initial Salmon Calcitonin Content in the Coating, Day 1 / Percent of Initial Salmon Calcitonin Content in the Coating, Day 3 / Percent of Initial Salmon Calcitonin Content in the Coating, Day 7 / Percent of Initial Salmon Calcitonin Content in the Coating, Day 14: stored 40° C., 96% RH", "key": {"[1]": {"details": "Amino acid: L-Arginine (12 mg/mL Arg-HCl), pH 6.0-6.5"}, "[2]": {"details": "Amino acid: L-Histidine (12 mg/mL His-HCl), pH 5.5"}, "[3]": {"details": "Amino acid: None (control), pH 6.0-6.5"}}, "note": "At least one peptide structure holds a part that was inferred or is arguable (an end, a ring closure or a residue).", "data": [{"smiles": "CC(C)C[C@H](NC(=O)[C@H](CCCCN)NC(=O)CNC(=O)[C@H](CC(C)C)NC(=O)[C@@H](NC(=O)[C@@H]1CSSC[C@H](N)C(=O)N[C@@H](CO)C(=O)N[C@@H](CC(N)=O)C(=O)N[C@@H](CC(C)C)C(=O)N[C@@H](CO)C(=O)N[C@@H]([C@@H](C)O)C(=O)N1)C(C)C)C(=O)N[C@@H](CO)C(=O)N[C@@H](CCC(N)=O)C(=O)N[C@@H](CCC(=O)O)C(=O)N[C@@H](CC(C)C)C(=O)N[C@@H](Cc1c[nH]cn1)C(=O)N[C@@H](CCCCN)C(=O)N[C@@H](CC(C)C)C(=O)N[C@@H](CCC(N)=O)C(=O)N[C@H](C(=O)N[C@@H](Cc1ccc(O)cc1)C(=O)N1CCC[C@H]1C(=O)N[C@@H](CCCNC(=N)N)C(=O)N[C@H](C(=O)N[C@@H](CC(N)=O)C(=O)N[C@H](C(=O)NCC(=O)N[C@@H](CO)C(=O)NCC(=O)N[C@H](C(=O)N1CCC[C@H]1C(N)=O)[C@@H](C)O)[C@@H](C)O)[C@@H](C)O)[C@@H](C)O", "note": "[Salmon Calcitonin, Salmon calcitonin]", "values": [{"measurement": "Percent of Initial Salmon Calcitonin Content in the Coating, Initial", "setting": "[1]", "result": 100, "unit": "%"}, {"measurement": "Percent of Initial Salmon Calcitonin Content in the Coating, Day 1", "setting": "[1]", "result": 5.8, "unit": "%"}, {"measurement": "Percent of Initial Salmon Calcitonin Content in the Coating, Day 3", "setting": "[1]", "result": 0.3, "unit": "%"}, {"measurement": "Percent of Initial Salmon Calcitonin Content in the Coating, Day 7", "setting": "[1]", "result": 0, "unit": "%"}, {"measurement": "Percent of Initial Salmon Calcitonin Content in the Coating, Day 14", "setting": "[1]", "result": 0, "unit": "%"}, {"measurement": "Percent of Initial Salmon Calcitonin Content in the Coating, Initial", "setting": "[2]", "result": 100, "unit": "%"}, {"measurement": "Percent of Initial Salmon Calcitonin Content in the Coating, Day 1", "setting": "[2]", "result": 30.3, "unit": "%"}, {"measurement": "Percent of Initial Salmon Calcitonin Content in the Coating, Day 3", "setting": "[2]", "result": 31.7, "unit": "%"}, {"measurement": "Percent of Initial Salmon Calcitonin Content in the Coating, Day 7", "setting": "[2]", "result": 7.5, "unit": "%"}, {"measurement": "Percent of Initial Salmon Calcitonin Content in the Coating, Day 14", "setting": "[2]", "result": 2.7, "unit": "%"}, {"measurement": "Percent of Initial Salmon Calcitonin Content in the Coating, Initial", "setting": "[3]", "result": 100, "unit": "%"}, {"measurement": "Percent of Initial Salmon Calcitonin Content in the Coating, Day 1", "setting": "[3]", "result": 21.5, "unit": "%"}, {"measurement": "Percent of Initial Salmon Calcitonin Content in the Coating, Day 3", "setting": "[3]", "result": 0.9, "unit": "%"}, {"measurement": "Percent of Initial Salmon Calcitonin Content in the Coating, Day 7", "setting": "[3]", "result": 0.1, "unit": "%"}, {"measurement": "Percent of Initial Salmon Calcitonin Content in the Coating, Day 14", "setting": "[3]", "result": 0, "unit": "%"}]}]}
